For 2 substances, binding results are on record in paper doi:10.1101/2023.05.05.539533 (bioRxiv, 2023).

Results are given in words; binding and its absence hold for the method and conditions named. Binding seen in cells or lysates may run through a third protein. A result given as binding can be weak or reduced; the word gives no strength.

The target in this test is T1, Phytophthora suppressor of RNA silencing 2 (PSR2), expressed in transgenic Arabidopsis line PSR2-5 (P. sojae) (UniProt E0W4V5).
T1 sequence: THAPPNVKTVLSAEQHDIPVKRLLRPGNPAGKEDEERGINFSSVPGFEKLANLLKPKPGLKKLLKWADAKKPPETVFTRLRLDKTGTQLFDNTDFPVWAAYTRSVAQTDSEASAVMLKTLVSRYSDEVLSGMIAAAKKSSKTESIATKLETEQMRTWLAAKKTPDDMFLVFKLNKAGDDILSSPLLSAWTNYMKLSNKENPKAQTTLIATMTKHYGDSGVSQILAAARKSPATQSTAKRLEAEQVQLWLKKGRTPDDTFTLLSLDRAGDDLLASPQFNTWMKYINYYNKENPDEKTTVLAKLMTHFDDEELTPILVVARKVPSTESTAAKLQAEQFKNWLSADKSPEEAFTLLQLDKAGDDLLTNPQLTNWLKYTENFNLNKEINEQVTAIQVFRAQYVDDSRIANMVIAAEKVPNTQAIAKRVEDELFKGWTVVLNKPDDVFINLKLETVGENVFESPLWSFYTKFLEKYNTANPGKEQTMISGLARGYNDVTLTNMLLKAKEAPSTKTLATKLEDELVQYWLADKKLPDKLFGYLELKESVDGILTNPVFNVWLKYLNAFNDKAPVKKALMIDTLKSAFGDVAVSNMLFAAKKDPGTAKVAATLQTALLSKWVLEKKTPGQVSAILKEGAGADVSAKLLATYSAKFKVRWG
Description: co-IP.

Consider “PDF1 (PP2A A subunit), endogenous in Arabidopsis (from UniProt Q38950)”, for which the binding result is given as “binds”.
As to “PDF2 (PP2A A subunit), endogenous in Arabidopsis (from UniProt Q38951)”, the binding entry was “binds”.
